Some of the results follow.
Key:
Test in all cases: log2 fold change, soluble protein after heating vs DMSO (PISA); higher = thermal stabilisation; K562 cells, 10 uM, 30 min; active = over 0.2 and 3.5 SD of the protein, either way, in both replicates (recomputed)
[1] = compound: C1=CC=C(C=C1)[C@H](COC2=CC3=C(C=C2)NC(=O)N3)NC(=O)C4=CC=CN(C4=O)CC5=CC(=C(C=C5)F)F
Method in brief: (§1)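 K562 cells at 2×10^6 cells/mL were exposed to 10 μM compound for 30 min, then aliquots were heated for 3 min across 48°C-58°C, pooled, and extracted in PBS containing 0.5% NP-40 at 4°C. The supernatant after 21,000xg for 90 min was taken as soluble protein and measured by TMTpro 16plex LC-MS/MS with channel sums equalised. Thermal stability is reported relative to control samples, with values from duplicates. Fold changes are given on a log2 scale.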

The chains behind the UniProt entries cited, without tags or fusion partners. Where a name states a change or a piece, a line headed by the entry shows the natural chain unless it says otherwise.
UniProt Q9ULI2: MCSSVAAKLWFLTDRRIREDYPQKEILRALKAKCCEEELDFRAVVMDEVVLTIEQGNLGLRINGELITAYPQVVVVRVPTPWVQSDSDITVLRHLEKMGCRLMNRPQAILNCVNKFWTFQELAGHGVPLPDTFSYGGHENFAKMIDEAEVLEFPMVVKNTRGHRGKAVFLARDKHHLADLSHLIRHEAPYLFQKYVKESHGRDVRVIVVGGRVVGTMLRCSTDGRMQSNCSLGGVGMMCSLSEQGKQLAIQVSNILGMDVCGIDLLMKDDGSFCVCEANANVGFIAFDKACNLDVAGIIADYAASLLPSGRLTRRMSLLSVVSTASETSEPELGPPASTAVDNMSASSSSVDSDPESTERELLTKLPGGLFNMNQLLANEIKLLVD
UniProt Q8TC12: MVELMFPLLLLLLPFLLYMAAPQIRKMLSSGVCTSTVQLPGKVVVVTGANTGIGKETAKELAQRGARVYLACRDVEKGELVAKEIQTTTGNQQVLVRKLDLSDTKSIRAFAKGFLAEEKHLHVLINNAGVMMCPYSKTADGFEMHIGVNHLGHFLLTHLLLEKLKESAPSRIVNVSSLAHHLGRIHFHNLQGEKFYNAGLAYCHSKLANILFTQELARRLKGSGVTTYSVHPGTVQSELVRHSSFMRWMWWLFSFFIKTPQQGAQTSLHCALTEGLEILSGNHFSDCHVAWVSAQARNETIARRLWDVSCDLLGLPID
UniProt Q14257: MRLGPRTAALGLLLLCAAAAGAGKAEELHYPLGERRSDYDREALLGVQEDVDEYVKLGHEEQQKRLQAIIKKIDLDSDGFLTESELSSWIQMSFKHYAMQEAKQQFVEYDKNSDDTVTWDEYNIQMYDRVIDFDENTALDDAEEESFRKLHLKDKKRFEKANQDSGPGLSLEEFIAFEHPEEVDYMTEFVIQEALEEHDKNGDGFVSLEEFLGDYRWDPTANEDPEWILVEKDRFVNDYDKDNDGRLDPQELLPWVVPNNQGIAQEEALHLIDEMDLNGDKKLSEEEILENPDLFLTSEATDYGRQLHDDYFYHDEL
UniProt Q6NUQ1: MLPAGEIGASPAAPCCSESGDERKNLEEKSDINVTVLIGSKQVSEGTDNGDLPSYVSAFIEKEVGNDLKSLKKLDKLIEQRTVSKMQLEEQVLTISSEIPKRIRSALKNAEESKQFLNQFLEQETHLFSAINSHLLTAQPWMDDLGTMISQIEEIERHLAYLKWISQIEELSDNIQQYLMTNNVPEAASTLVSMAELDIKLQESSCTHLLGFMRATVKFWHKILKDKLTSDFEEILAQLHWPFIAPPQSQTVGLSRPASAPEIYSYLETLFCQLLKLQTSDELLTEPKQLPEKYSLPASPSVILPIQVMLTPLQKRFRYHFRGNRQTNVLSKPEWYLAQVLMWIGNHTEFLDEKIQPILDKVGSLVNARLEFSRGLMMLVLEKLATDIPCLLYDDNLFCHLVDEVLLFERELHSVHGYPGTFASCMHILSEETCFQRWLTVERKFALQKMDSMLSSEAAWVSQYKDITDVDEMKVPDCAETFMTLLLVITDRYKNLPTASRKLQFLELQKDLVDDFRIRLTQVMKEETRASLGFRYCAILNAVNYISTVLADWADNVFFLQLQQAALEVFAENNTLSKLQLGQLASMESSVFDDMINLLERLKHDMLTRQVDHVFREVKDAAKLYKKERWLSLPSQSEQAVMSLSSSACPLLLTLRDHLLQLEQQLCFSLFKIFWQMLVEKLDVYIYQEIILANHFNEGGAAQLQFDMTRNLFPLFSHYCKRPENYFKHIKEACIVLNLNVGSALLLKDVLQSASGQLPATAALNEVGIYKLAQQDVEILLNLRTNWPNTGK
UniProt O43567: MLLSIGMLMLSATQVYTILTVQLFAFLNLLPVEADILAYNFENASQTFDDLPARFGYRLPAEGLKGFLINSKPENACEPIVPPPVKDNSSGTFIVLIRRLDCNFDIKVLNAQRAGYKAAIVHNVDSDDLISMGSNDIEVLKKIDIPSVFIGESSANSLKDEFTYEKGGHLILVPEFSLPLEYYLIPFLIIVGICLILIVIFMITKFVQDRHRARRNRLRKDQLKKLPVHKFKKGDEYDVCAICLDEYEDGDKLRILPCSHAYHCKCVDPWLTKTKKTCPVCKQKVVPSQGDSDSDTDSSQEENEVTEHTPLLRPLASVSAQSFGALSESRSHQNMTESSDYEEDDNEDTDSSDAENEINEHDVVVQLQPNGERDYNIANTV
UniProt O14730: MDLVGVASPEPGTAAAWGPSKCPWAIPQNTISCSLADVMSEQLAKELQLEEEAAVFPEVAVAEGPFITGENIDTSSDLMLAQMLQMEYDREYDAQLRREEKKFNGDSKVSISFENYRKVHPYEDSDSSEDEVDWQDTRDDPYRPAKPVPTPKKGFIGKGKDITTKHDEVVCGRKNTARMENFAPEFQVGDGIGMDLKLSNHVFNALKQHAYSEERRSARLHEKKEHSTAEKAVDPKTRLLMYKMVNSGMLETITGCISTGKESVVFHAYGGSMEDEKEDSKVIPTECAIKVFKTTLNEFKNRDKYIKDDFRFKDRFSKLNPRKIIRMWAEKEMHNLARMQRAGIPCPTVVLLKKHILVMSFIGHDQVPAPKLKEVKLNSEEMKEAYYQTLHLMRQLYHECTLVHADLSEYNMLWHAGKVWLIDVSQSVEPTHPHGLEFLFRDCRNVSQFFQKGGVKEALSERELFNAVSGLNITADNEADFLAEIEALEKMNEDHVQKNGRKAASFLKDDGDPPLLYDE
UniProt Q86VR2, whole entry, looked up: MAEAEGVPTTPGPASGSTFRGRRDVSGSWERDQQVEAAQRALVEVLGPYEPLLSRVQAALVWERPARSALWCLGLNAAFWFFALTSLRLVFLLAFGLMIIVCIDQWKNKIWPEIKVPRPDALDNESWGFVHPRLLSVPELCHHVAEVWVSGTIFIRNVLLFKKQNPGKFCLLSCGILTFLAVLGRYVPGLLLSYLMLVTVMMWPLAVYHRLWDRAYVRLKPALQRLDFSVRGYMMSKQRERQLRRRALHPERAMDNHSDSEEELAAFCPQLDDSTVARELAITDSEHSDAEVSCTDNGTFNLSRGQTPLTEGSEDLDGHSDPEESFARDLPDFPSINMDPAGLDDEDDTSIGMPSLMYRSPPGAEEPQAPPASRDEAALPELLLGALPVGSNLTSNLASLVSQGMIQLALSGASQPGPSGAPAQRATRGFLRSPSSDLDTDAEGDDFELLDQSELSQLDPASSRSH
UniProt Q8TAC1: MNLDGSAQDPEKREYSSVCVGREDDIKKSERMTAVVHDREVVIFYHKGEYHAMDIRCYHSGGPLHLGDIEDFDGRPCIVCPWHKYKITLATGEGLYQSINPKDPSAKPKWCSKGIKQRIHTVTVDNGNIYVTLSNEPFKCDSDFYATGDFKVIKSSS
UniProt Q9H6H4: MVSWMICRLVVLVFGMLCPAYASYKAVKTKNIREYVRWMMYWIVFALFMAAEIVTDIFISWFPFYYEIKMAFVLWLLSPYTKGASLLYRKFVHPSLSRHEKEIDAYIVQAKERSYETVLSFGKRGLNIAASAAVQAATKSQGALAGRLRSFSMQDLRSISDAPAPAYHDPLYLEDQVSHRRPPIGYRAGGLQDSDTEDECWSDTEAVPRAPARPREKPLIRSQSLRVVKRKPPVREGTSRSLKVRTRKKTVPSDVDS
UniProt Q8ND24: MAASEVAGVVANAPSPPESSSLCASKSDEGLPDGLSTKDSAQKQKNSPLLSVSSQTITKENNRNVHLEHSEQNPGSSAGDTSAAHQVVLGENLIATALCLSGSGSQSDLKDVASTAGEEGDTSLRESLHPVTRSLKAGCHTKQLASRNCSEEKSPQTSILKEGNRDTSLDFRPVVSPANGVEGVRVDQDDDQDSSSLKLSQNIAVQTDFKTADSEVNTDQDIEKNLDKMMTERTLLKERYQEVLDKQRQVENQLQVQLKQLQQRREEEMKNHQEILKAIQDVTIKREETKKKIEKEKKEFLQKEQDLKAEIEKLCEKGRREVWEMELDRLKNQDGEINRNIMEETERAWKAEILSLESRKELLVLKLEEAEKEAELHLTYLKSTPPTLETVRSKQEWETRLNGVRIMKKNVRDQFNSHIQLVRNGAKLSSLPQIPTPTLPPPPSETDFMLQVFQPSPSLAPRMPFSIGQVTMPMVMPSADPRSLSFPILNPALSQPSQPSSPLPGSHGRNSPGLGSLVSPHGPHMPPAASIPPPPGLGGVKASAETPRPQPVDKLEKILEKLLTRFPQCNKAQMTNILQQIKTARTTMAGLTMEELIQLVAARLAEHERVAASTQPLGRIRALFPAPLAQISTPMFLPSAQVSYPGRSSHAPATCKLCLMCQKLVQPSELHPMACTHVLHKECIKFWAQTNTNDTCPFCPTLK
UniProt Q8NC44: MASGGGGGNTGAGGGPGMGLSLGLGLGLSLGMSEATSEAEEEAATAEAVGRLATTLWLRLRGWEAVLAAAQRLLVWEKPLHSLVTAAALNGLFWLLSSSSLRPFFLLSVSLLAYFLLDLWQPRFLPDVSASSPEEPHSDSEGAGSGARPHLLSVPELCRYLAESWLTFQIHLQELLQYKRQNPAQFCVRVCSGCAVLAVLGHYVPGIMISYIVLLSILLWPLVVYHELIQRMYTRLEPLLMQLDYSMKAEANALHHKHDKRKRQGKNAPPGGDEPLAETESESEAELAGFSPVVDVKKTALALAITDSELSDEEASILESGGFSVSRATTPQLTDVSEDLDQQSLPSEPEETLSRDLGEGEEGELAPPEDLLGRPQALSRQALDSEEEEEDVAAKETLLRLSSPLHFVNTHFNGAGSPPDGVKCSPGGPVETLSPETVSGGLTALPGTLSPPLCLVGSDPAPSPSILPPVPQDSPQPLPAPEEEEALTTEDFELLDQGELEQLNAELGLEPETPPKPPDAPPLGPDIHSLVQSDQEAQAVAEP
UniProt O15541: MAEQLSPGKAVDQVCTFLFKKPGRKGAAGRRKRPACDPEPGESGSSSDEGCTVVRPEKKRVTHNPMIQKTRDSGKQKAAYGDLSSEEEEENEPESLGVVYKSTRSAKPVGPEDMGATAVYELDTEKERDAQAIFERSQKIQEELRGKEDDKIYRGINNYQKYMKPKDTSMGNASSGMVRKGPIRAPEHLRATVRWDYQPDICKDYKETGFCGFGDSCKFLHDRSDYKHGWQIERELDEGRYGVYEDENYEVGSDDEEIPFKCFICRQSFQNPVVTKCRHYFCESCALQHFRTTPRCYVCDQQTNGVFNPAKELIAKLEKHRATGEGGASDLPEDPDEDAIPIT
UniProt Q5TA31: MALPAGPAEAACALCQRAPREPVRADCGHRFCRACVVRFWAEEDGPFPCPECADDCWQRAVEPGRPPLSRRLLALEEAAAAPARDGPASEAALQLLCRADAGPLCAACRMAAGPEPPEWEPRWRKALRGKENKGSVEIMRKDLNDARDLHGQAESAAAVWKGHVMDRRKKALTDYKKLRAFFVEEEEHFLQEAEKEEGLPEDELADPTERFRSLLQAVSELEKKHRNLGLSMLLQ
UniProt Q9Y256: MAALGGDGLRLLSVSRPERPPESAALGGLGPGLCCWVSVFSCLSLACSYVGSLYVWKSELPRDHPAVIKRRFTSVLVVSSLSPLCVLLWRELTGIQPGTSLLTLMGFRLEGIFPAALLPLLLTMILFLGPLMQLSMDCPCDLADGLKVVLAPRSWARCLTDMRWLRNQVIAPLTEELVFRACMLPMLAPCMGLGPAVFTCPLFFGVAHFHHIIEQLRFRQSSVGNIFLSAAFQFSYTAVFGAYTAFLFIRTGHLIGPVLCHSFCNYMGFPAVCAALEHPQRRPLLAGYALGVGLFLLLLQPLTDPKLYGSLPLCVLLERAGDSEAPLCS
UniProt Q15293: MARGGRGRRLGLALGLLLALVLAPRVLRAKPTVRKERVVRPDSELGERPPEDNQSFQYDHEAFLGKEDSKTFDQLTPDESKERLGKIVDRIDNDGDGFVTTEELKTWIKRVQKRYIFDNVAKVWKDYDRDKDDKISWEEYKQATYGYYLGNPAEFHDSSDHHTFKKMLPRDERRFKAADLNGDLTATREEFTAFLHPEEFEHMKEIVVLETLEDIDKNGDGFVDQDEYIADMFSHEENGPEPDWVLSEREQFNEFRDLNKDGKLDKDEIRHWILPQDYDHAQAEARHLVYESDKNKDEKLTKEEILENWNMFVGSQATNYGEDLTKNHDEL
UniProt Q9H920: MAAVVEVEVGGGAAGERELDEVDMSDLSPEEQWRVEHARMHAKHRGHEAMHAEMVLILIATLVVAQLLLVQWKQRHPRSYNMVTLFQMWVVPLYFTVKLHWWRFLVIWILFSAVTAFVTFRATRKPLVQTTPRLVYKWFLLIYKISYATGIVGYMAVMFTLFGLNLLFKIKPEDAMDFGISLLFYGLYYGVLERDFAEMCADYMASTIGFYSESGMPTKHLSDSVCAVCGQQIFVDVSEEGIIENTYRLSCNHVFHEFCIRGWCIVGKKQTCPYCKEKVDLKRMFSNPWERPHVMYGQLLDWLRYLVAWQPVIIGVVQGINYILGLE
UniProt Q9H4X1: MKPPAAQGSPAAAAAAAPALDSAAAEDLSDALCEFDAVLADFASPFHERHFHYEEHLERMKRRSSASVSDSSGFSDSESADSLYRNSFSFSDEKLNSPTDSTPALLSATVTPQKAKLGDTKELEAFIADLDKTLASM

[2] = compound: CC1=C(SC2=C1C(=N[C@H](C3=NN=C(N32)C)CC(=O)N)C4=CC=C(C=C4)Cl)C
Method in brief: as §1

[3] = compound: CC1=C2C(=CC=C1)N=C(N(C2=O)C3=CC=CC=C3C)CN4C=NC5=C(N=CN=C54)N
Method in brief: as §1

[4] = compound: Cc1sc2c(c1C)C(c1ccc(Cl)cc1)=N[C@@H](CC(=O)OC(C)(C)C)c1nnc(C)n1-2
Method in brief: as §1

[5] = compound: c1ccc([C@@H]2C[C@H]2NC2CCNCC2)cc1
Method in brief: as §1

Measured: log2 fold change

RIMKLB (UniProt Q9ULI2)
inactive: [1] 0.026

RDH11 (UniProt Q8TC12)
inactive: [1] 0.258 | [2] 0.06 | [3] 0.266 | [4] 0.115 | [5] -0.058

RCN2 isoform 2 (UniProt Q14257)
inactive: [1] -0.059 | [2] 0.014 | [3] -0.004 | [4] 0.009 | [5] 0.003

RINT1 (UniProt Q6NUQ1)
inactive: [1] -0.004 | [2] -0.102 | [3] -0.107 | [4] 0.178 | [5] -0.02

Looked up one by one from the entries so far (2):
RCN2 isoform 2 (UniProt Q14257)
inactive: [1] -0.059 | [2] 0.014 | [3] -0.004 | [4] 0.009 | [5] 0.003

RDH11 (UniProt Q8TC12)
inactive: [1] 0.258 | [2] 0.06 | [3] 0.266 | [4] 0.115 | [5] -0.058

Following part

RNF13 (UniProt O43567)
inactive: [1] -0.003 | [2] -0.18 | [3] 0 | [4] -0.109 | [5] -0.043

RIOK3 (UniProt O14730)
inactive: [1] -0.015 | [2] -0.008 | [3] -0.016 | [4] -0.008 | [5] 0.024

RETREG3 (UniProt Q86VR2)
inactive: [1] 0.076 | [2] 0.085 | [3] 0.007 | [4] -0.046 | [5] -0.037

RFESD isoform 2 (UniProt Q8TAC1)
inactive: [1] 0.03 | [2] 0.061 | [3] -0.012 | [4] 0.034 | [5] 0.057

REEP4 (UniProt Q9H6H4)
inactive: [1] -0.004 | [2] -0.034 | [3] -0.023 | [4] 0.081 | [5] 0.003

RNF185 (UniProt Q96GF1)
inactive: [1] -0.157 | [2] 0 | [3] 0.006 | [4] 0.104 | [5] -0.168

RNF214 (UniProt Q8ND24)
inactive: [1] -0.002 | [2] 0.006 | [3] 0.136 | [4] -0.016 | [5] 0.017

RGS10 (UniProt O43665)
inactive: [1] 0.014 | [2] 0.042 | [3] -0.035 | [4] -0.022 | [5] -0.058

RETREG2 (UniProt Q8NC44)
inactive: [1] 0.04 | [2] 0.045 | [3] -0.131 | [4] 0.014 | [5] -0.046

RDH10 (UniProt Q8IZV5)
inactive: [1] 0.113 | [2] 0.08 | [3] 0.098 | [4] -0.058 | [5] -0.031

RNF113A (UniProt O15541)
inactive: [1] -0.009 | [2] 0.026 | [3] 0.021 | [4] -0.002 | [5] 0.048

RNF187 (UniProt Q5TA31)
inactive: [1] -0.047 | [2] 0.07 | [3] -0.033 | [4] -0.083 | [5] -0.033

RCE1 (UniProt Q9Y256)
inactive: [1] -0.007 | [2] 0.086 | [3] 0.059 | [4] -0.092 | [5] 0.076

RHOC (UniProt P08134)
inactive: [1] 0.001 | [2] 0.017 | [3] 0.052 | [4] -0.029 | [5] -0.005

RBM8A (UniProt Q9Y5S9)
inactive: [1] -0.02 | [2] -0.005 | [3] -0.062 | [4] 0.029 | [5] 0.045

REPIN1 isoform 4 (UniProt Q9BWE0)
inactive: [1] -0.064 | [2] -0.035 | [3] -0.018 | [4] 0.009 | [5] 0.025

RNF213 isoform 4 (UniProt Q63HN8)
inactive: [1] -0.032 | [2] 0.11 | [3] -0.016 | [4] -0.115 | [5] -0.089

RCN1 (UniProt Q15293)
inactive: [1] 0.02 | [2] 0.024 | [3] 0.04 | [4] -0.021 | [5] 0.007

RNF121 (UniProt Q9H920)
inactive: [1] -0.048 | [2] 0.055 | [3] -0.007 | [4] -0.091 | [5] -0.016

RIPK1 (UniProt Q13546)
inactive: [1] -0.058 | [2] -0.134 | [3] 0.033 | [4] -0.048 | [5] -0.049

RGCC (UniProt Q9H4X1)
inactive: [1] 0.137

Reference: the supplement of paper PMC10849652
